{"source": "patent US12167744B2", "about": "“Nicotine liquid formulations for aerosol devices and methods thereof” (JUUL Labs, Inc., priority 2013, dated 2024)", "assay": "Aerosolized nicotine salt testing, analyte recovery (Example 13)", "assay_type": "physicochemical", "conditions": "total recovered amount / theoretical amount generated by the electronic cigarette; 30 puffs", "note": "At least one read-out could not be matched to a standard name with certainty.", "data": [{"compound": "O=C(O)CC(O)C(=O)O", "note": "(stereo not shown) [malic acid]", "values": [{"measurement": "% Recovery of malic acid", "result": "less than 50%"}]}]}
